This note sets out measurements from paper doi:10.1101/2022.12.14.520480.

These are yes or no findings as the source states them, for the method shown. In cells and extracts the contact can be indirect. Here binding means that the protein was enriched with, or labelled near, the bait; the list need not be complete.

The experiment addresses T1, APEX2-TBC1D15 (UniProt Q8TC07).
T1 sequence: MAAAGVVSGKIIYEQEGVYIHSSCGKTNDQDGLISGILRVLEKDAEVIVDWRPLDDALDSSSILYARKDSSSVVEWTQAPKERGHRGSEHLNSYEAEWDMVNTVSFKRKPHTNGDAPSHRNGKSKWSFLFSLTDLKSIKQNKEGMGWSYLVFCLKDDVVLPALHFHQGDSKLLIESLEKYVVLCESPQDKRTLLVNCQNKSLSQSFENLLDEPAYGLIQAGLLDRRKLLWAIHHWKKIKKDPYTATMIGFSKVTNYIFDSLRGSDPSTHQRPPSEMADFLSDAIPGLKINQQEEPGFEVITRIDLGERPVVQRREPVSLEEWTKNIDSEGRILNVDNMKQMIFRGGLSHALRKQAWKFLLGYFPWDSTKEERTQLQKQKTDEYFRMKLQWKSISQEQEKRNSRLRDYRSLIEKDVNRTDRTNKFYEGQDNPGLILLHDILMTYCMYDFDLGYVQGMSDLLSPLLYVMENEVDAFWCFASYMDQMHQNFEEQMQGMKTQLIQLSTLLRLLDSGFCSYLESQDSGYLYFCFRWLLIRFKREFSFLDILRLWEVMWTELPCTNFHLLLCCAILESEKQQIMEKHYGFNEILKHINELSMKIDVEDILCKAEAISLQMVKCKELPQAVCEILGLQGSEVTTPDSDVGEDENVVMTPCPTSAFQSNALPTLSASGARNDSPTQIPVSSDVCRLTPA
Nature of the experiment: proximity labelling.

B1: ESYT2 (protein, UniProt A0FGR8 1-921)
chain: MTANRDAALSSHRHPGCAQRPRTPTFASSSQRRSAFGFDDGNFPGLGERSHAPGSRLGARRRAKTARGLRGHRQRGAGAGLSRPGSARAPSPPRPGGPENPGGVLSVELPGLLAQLARSFALLLPVYALGYLGLSFSWVLLALALLAWCRRSRGLKALRLCRALALLEDEERVVRLGVRACDLPAWVHFPDTERAEWLNKTVKHMWPFICQFIEKLFRETIEPAVRGANTHLSTFSFTKVDVGQQPLRINGVKVYTENVDKRQIILDLQISFVGNCEIDLEIKRYFCRAGVKSIQIHGTMRVILEPLIGDMPLVGALSIFFLRKPLLEINWTGLTNLLDVPGLNGLSDTIILDIISNYLVLPNRITVPLVSEVQIAQLRFPVPKGVLRIHFIEAQDLQGKDTYLKGLVKGKSDPYGIIRVGNQIFQSRVIKENLSPKWNEVYEALVYEHPGQELEIELFDEDPDKDDFLGSLMIDLIEVEKERLLDEWFTLDEVPKGKLHLRLEWLTLMPNASNLDKVLTDIKADKDQANDGLSSALLILYLDSARNLPSGKKISSNPNPVVQMSVGHKAQESKIRYKTNEPVWEENFTFFIHNPKRQDLEVEVRDEQHQCSLGNLKVPLSQLLTSEDMTVSQRFQLSNSGPNSTIKMKIALRVLHLEKRERPPDHQHSAQVKRPSVSKEGRKTSIKSHMSGSPGPGGSNTAPSTPVIGGSDKPGMEEKAQPPEAGPQGLHDLGRSSSSLLASPGHISVKEPTPSIASDISLPIATQELRQRLRQLENGTTLGQSPLGQIQLTIRHSSQRNKLIVVVHACRNLIAFSEDGSDPYVRMYLLPDKRRSGRRKTHVSKKTLNPVFDQSFDFSVSLPEVQRRTLDVAVKNSGGFLSKDKGLLGKVLVALASEELAKGWTQWYDLTEDGTRPQAMT
For the molecule B1, the binding entry was “binds”.

B2: RABL1FIP1 (protein, UniProt Q6WKZ4 1-1283)
chain: MSLMVSAGRGLGAVWSPTHVQVTVLQARGLRAKGPGGTSDAYAVIQVGKEKYATSVSERSLGAPVWREEATFELPSLLSSGPAAAATLQLTVLHRALLGLDKFLGRAEVDLRDLHRDQGRRKTQWYKLKSKPGKKDKERGEIEVDIQFMRNNMTASMFDLSMKDKSRNPFGKLKDKIKGKNKDSGSDTASAIIPSTTPSVDSDDESVVKDKKKKSKIKTLLSKSNLQKTPLSQSMSVLPTSKPEKVLLRPGDFQSQWDEDDNEDESSSASDVMSHKRTASTDLKQLNQVNFTLPKKEGLSFLGGLRSKNDVLSRSNVCINGNHVYLEQPEAKGEIKDSSPSSSPSPKGFRKKHLFSSTENLAAGSWKEPAEGGGLSSDRQLSESSTKDSLKSMTLPSYRPAPLVSGDLRENMAPANSEATKEAKESKKPESRRSSLLSLMTGKKDVAKGSEGENPLTVPGREKEGMLMGVKPGEDASGPAEDLVRRSEKDTAAVVSRQGSSLNLFEDVQITEPEAEPESKSEPRPPISSPRAPQTRAVKPRLEVSPEAQPTARLPSPTDSPSSLPPLPSSSGQASVPSELGHGADTQSSESPSVFSSLSSPIAAPISTSTPIESWPLVDRGQAKSEGPPLLPKAELQTESLTPVPNSGSSALGSLFKQPSFPANKGTEDSLMGRTRETGTEKNTSSLELEESLPEQPETGRQEEELPRFPCKKQDYSPSSGEAQEVPFALSLSSDGAVSPVGELAAGGDRDLESQAGSLVESKARDAAEEVAPPLPMGASVPSIDSMMRKLEEMGLNLRKDQKKTKKRVSFSEQLFTEEAVAGAALLVEGHSSCPQELNPAWSVAGNASDGEPPESPHAEDSERESVTTPGPATCGAPASPADHLLLPSQEESFSEVPMSEASSAKDTPLFRMEGEDALVTQYQSKASDHEGLLSDPLSDLQLVSDFKSPIMADLNLSLPSIPEVASDDERIDQVEDDGDQVEDDGETAKSSTLDIGALSLGLVVPCPERGKGPSGEADRLVLGEGLCDFRLQAPQASVTAPSEQTTEFGIHKPHLGKSSSLDKQLPGPSGGEEEKPMGNGSPSPPPGTSLDNPVPSPSPSEIFPVTHSFPSSAHSDTHHTSTAESQKKATAEGSAGRVENFGKRKPLLQAWVSPSETHPVSAQPGAGTGSAKHRLHPVKPMNAMATKVANCSLGTATIISENLNNEVMMKKYSPSDPAFAYAQLTHDELIQLVLKQKETISKKEFQVRELEDYIDNLLVRVMEETPNILRIPTQVGKKAGKM
With B2, the binding entry is “binds”.
